Read-outs that look alike come from different tables or passages of the source. No constants are given. Whether binding was seen depends on the method and setting. For some assays here: Binding seen in cells or lysates may run through a third protein. Some entries that bind do so weakly or less than the wild type.
What was measured:
[1] = target: GCP4 (gamma-tubulin complex protein 4) (human (endogenous in HeLa)) (UniProt Q9UGJ1); assay: co-IP
[2] = target: GCP4 (gamma-tubulin complex protein 4) (human (endogenous in HeLa)) (UniProt Q9UGJ1); assay: co-IP; remark: listed apart in the source
[3] = target: GCP4 (gamma-tubulin complex protein 4) (human (endogenous in HeLa)) (UniProt Q9UGJ1); assay: co-IP; remark: listed apart in the source
[4] = target: GCP6 (gamma-tubulin complex protein 6) (human (endogenous in HeLa)) (UniProt Q96RT7); assay: co-IP
[5] = target: GCP6 (gamma-tubulin complex protein 6) (human (endogenous in HeLa)) (UniProt Q96RT7); assay: co-IP; remark: listed apart in the source
GCP6 280-1819 [6] = target: GCP6 280-1819 (UniProt Q96RT7); assay: co-IP
GCP6 352-1819 = GCP6 352-1819 (UniProt Q96RT7); assay: co-IP
[7] = target: overexpressed GCP6 (wild type) (UniProt Q96RT7); assay: co-IP
GCP6 280-1819 [8] = target: GCP6 280-1819 (UniProt Q96RT7); assay: co-IP; remark: listed apart in the source
[9] = target: GCP4 (gamma-tubulin complex protein 4) (human (endogenous in HeLa)) (UniProt Q9UGJ1); assay: co-IP; remark: listed apart in the source
[10] = target: GCP5 (gamma-tubulin complex protein 5), HEK293 (human (endogenous in HEK293)) (UniProt Q96RT8); assay: co-IP
[11] = target: GCP5 (gamma-tubulin complex protein 5), HEK293 (human (endogenous in HEK293)) (UniProt Q96RT8); assay: co-IP; remark: listed apart in the source
[12] = target: GCP5 (gamma-tubulin complex protein 5) (human (endogenous in HeLa)) (UniProt Q96RT8); assay: co-IP
[13] = target: GCP5 (gamma-tubulin complex protein 5) (human (endogenous in HeLa)) (UniProt Q96RT8); assay: co-IP; remark: listed apart in the source
[14] = target: GCP5 (gamma-tubulin complex protein 5) (human (endogenous in HeLa)) (UniProt Q96RT8); assay: co-IP; remark: listed apart in the source
[15] = target: GCP6 with a C-terminal GST-hexa-histidine tag (human (endogenous in HEK293)) (UniProt Q96RT7); assay: SEC

Chains of the proteins cited; added tags and fusions are not shown. Lines headed by an entry give the natural chain unless they say otherwise; changes in a name come on top.
UniProt Q9UGJ1, whole entry: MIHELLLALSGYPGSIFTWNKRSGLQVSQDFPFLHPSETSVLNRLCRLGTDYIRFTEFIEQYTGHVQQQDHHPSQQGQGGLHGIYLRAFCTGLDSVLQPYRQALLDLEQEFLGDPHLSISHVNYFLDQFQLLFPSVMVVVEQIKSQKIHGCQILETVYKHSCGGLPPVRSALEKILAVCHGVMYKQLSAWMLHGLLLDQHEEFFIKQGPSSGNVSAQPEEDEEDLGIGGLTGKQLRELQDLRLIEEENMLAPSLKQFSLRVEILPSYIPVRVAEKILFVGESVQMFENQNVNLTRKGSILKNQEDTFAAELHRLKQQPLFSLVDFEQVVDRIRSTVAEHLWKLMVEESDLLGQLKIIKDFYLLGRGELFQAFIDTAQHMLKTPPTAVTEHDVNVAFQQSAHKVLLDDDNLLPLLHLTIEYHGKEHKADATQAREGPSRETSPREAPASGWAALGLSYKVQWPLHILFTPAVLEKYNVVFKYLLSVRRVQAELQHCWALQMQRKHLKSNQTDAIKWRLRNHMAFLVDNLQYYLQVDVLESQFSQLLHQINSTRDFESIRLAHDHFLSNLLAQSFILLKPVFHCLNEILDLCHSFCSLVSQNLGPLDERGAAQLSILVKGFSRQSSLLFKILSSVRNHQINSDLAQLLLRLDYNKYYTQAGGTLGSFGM
UniProt Q96RT7, whole entry: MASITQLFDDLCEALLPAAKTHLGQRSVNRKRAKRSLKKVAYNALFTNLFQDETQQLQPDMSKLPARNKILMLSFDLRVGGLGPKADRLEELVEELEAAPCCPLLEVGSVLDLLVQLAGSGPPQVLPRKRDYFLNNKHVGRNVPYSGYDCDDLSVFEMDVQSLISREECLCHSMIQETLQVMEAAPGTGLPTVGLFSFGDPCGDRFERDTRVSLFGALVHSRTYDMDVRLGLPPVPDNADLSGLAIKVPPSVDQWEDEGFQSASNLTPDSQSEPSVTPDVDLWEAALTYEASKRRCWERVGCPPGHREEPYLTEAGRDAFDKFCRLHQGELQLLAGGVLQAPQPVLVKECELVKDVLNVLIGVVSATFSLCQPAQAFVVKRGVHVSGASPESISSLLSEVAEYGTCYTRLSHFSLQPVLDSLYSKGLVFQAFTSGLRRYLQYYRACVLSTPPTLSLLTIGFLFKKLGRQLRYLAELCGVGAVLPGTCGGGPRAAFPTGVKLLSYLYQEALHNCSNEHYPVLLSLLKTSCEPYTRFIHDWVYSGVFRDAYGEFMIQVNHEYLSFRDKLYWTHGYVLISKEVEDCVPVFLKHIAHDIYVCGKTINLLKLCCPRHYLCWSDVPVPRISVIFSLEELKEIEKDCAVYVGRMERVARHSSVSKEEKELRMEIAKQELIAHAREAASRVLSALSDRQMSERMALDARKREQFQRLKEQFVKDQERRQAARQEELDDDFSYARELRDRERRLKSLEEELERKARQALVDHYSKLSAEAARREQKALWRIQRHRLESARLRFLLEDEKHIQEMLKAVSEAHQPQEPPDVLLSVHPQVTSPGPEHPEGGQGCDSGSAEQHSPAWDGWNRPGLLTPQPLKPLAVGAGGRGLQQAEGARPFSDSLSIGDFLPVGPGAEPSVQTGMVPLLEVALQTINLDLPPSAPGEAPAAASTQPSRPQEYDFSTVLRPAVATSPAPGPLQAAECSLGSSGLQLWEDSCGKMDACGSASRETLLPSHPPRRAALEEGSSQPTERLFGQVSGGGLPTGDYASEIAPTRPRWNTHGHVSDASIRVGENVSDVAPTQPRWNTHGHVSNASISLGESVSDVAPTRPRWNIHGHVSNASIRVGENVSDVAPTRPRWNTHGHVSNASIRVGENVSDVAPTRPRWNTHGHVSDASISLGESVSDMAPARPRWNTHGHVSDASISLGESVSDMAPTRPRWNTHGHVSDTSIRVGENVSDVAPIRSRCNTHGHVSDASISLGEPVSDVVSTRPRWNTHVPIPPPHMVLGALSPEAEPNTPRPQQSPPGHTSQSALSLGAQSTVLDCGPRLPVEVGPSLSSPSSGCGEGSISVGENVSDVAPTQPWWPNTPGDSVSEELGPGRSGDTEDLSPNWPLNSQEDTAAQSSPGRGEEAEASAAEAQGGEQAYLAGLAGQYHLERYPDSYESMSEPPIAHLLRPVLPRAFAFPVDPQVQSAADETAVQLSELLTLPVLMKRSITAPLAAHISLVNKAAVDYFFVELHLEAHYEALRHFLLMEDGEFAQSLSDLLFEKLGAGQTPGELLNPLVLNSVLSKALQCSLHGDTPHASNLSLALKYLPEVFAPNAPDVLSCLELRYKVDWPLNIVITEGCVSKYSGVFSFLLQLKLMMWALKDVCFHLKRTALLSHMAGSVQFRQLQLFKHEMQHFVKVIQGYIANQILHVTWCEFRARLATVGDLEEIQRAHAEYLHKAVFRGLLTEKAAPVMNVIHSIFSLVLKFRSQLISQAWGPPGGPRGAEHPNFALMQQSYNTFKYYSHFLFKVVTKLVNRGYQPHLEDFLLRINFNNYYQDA
UniProt Q96RT8, whole entry: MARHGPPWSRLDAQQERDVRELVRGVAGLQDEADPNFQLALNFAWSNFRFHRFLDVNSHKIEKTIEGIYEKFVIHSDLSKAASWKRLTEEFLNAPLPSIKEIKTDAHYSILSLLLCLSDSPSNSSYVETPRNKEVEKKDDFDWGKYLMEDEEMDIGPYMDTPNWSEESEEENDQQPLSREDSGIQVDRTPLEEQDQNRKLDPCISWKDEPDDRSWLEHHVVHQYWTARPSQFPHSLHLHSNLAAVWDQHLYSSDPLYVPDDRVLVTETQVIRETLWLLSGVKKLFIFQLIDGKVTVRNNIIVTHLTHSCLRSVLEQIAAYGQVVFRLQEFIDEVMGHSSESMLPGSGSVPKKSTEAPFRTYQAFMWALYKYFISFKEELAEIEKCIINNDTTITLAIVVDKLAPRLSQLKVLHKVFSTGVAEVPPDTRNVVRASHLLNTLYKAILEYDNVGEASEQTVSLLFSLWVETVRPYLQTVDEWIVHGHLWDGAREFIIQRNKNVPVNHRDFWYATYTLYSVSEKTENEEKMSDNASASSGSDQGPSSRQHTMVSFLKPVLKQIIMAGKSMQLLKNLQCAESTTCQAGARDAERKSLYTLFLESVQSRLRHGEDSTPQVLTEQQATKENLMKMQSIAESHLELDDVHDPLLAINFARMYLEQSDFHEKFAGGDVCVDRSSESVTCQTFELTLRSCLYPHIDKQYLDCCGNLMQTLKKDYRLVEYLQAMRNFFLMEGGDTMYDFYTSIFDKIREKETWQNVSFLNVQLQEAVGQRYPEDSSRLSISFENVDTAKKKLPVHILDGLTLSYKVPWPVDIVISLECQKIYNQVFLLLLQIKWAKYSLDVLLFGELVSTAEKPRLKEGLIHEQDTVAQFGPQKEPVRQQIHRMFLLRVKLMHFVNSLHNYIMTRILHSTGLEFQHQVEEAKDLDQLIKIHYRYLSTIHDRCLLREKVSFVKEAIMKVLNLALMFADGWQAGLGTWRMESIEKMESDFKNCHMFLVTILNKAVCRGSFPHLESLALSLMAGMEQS
UniProt Q96CW5, whole entry: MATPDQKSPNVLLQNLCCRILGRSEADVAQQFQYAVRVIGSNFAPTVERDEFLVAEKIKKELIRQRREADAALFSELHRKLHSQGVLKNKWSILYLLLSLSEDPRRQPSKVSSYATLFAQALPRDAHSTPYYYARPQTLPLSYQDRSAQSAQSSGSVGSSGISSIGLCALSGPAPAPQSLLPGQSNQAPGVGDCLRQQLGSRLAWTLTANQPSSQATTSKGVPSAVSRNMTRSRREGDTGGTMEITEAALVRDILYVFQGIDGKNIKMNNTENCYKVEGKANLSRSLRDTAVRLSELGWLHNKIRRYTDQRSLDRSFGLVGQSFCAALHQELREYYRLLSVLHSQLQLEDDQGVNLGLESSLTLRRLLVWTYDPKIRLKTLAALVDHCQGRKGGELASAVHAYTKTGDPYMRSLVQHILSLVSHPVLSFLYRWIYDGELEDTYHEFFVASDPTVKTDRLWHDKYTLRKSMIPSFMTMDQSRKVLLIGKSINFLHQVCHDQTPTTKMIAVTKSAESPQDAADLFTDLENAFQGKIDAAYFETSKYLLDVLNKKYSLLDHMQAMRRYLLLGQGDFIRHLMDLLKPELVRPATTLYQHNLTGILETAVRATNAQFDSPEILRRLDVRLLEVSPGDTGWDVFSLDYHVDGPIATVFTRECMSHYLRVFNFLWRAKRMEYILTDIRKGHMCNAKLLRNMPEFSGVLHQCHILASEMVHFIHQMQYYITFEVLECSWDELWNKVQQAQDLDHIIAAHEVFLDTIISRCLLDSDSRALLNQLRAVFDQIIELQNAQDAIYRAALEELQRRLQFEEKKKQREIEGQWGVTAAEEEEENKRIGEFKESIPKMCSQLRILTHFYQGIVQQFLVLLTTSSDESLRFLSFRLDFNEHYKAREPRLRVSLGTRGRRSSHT
UniProt Q9BSJ2, whole entry: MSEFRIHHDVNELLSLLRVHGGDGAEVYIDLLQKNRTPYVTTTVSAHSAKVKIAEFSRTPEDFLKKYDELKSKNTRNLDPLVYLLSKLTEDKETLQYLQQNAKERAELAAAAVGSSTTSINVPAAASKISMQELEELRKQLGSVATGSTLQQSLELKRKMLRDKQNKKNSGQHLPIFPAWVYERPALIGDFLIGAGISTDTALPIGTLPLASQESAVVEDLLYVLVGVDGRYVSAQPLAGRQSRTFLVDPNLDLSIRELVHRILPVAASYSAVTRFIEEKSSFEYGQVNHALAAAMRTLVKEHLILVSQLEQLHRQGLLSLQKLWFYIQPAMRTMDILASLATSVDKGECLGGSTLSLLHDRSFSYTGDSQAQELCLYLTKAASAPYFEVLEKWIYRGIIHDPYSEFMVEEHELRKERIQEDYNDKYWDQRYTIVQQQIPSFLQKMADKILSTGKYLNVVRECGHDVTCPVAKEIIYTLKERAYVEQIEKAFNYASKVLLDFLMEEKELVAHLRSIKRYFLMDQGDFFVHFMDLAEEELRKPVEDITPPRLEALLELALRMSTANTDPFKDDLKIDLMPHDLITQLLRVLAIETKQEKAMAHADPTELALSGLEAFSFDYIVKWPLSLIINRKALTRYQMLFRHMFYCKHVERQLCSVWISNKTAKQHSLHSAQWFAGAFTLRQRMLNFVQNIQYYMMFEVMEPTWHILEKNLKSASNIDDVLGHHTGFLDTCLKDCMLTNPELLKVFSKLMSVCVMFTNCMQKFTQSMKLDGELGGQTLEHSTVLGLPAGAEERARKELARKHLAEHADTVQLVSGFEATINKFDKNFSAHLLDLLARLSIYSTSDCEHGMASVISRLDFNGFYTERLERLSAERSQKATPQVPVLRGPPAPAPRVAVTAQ

Substance: GCP6 (gamma-tubulin complex protein 6) (from UniProt Q96RT7 1-1819)
- binding [1]: binds
- binding [2]: binds
- binding [3]: binds

Substance: GCP4 (gamma-tubulin complex protein 4) (from UniProt Q9UGJ1 1-667)
- binding [4]: binds
- binding [5]: binds
- binding (GCP6 280-1819 [6]): binds
- binding (GCP6 352-1819): no binding
- binding [7]: binds
- binding (GCP6 280-1819 [8]): no binding (condition: 500 mM KCl)

Substance: GCP3 (gamma-tubulin complex protein 3) (from UniProt Q96CW5 1-907)
- binding [2]: binds
- binding [9]: no binding (condition: 500 mM KCl)

Substance: GCP2 (gamma-tubulin complex protein 2), HEK293 (from UniProt Q9BSJ2 1-902)
- binding [10]: binds
- binding [11]: no binding (condition: 600 mM KCl)

Substance: GCP2 (gamma-tubulin complex protein 2) (from UniProt Q9BSJ2 1-902)
- binding [12]: binds
- binding [2]: binds
- binding [13]: binds
- binding [9]: no binding (condition: 500 mM KCl)
- binding [14]: no binding (condition: 500 mM KCl)

Substance: GCP4 (gamma-tubulin complex protein 4), HEK293 (from UniProt Q9UGJ1 1-667)
- binding [15]: binds

Substance: GCP6Δ675-1400 (from UniProt Q96RT7 1-1819)
- binding [2]: binds
